{
  "source": "patent US20240016816A1",
  "about": "“COMBINATION THERAPY” (priority 2017, published 2024)",
  "origin": "cited, not measured here",
  "tested_on": "hair loss",
  "settings": "monotherapy",
  "note": "For at least one compound, name, drawing or mass did not settle the structure.",
  "data": [
    {"smiles": "Nc1cc(N2CCCCC2)nc(N)[n+]1[O-]", "note": "[minoxidil]", "values": [
      {"measurement": "users who achieve hair growth", "setting": "daily use for four months", "value": 50, "unit": "%"},
      {"measurement": "type of hair regrown", "value": "hair regrowth tends to be vellus hair"}
    ]}
  ]
}
